These are yes or no findings as the source states them, for the method shown. Some binding calls cover weakened binding; strength is not graded here.

By UniProt entry, the sequences of proteins in these tests, tags left out.
UniProt P26718: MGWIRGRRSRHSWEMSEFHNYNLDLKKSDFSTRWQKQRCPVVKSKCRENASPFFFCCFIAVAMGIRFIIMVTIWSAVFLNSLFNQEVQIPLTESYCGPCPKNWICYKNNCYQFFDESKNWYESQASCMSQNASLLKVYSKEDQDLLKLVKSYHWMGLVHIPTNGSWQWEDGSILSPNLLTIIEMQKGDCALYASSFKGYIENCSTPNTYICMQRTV

This note sets out measurements from patent publication US20210393685A1 (TRUSTEES OF COLUMBIA UNIVERSITY IN THE CITY OF NEW YORK, published 2021).

Experiment [1] deals with NKG2D on primary NK cells (human) (UniProt P26718). In words: flow cytometry on NKG2D-expressing primary NK cells, detected with FITC anti-Myc antibody. In general terms: Flow cytometry measures light scatter and fluorescence of single cells or particles in a stream.
Experiment [2] shares this target. In words: flow cytometry on primary NK cells, detected with anti-Myc Ab (FIG. 5D).
The target is the same in experiment [3]. Kind of experiment: flow cytometry on primary NK cells, detected with anti-Myc Ab (FIG. 5E).

B1: anti-CD33-ULBP1 chimera 1 (CD33-ULBP1-1) (other)
chain: EIVLTQSPGSLAVSPGERVTMSCKSSQSVFFSSSQKNYLAWYQQIPGQSPRLLIYWASTRESGVPDRFTGSGSGTDFTLTISSVQPEDLAIYYCHQYLSSRTFGQGTKLEIKRGSTSGSGKPGSGEGSTKGQVQLQQPGAEVVKPGASVKMSCKASGYTFTSYYIHWIKQTPGQGLEWVGVIYPGNDDISYNQKFQGKATLTADKSSTTAYMQLSSLTSEDSAVYYCAREVRLRYFDVWGQGTTVTVSSSSSAGGGGSGGGGSGGGGSWVDTHCLCYDFIITPKSRPEPQWCEVQGLVDERPFLHYDCVNHKAKAFASLGKKVNVTKTWEEQTETLRDVVDFLKGQLLDIQVENLIPIEPLTLQARMSCEHEAHGHGRGSWQFLFNGQKFLLFDSNNRKWTALHPGAKKMTEKWEKNRDVTMFFQKISLGDCKMWLEEFLMYWEQMLDPTKPPSLAPGEQKLISEEDLHHHHHH
notes: also called αCD33-ULBP1 chimera 1
Consider B1, for which the binding entry in experiment [1] and in experiment [2] was “binds” throughout.

B2: anti-CD33-ULBP1 chimera 2 (CD33-ULBP1-2, with proline) (other)
chain: EIVLTQSPGSLAVSPGERVTMSCKSSQSVFFSSSQKNYLAWYQQIPGQSPRLLIYWASTRESGVPDRFTGSGSGTDFTLTISSVQPEDLAIYYCHQYLSSRTFGQGTKLEIKRGSTSGSGKPGSGEGSTKGQVQLQQPGAEVVKPGASVKMSCKASGYTFTSYYIHWIKQTPGQGLEWVGVIYPGNDDISYNQKFQGKATLTADKSSTTAYMQLSSLTSEDSAVYYCAREVRLRYFDVWGQGTTVTVSSSSSAGGGGSGGGGSGGGGSPWVDTHCLCYDFIITPKSRPEPQWCEVQGLVDERPFLHYDCVNHKAKAFASLGKKVNVTKTWEEQTETLRDVVDFLKGQLLDIQVENLIPIEPLTLQARMSCEHEAHGHGRGSWQFLFNGQKFLLFDSNNRKWTALHPGAKKMTEKWEKNRDVTMFFQKISLGDCKMWLEEFLMYWEQMLDPTKPPSLAPGEQKLISEEDLHHHHHH
notes: also called αCD33-ULBP1 chimera 2
With B2, the binding entry in experiment [1] and in experiment [3] was “binds” in each case.
